# Data published in patent US10443089B2, “Methods of multiplexing DNA sensors and localizing DNA sensor” (NATIONAL CENTRE FOR BIOLOGICAL SCIENCES (NCBS-TIFR), priority 2013, dated 2019).
# Test system: IA2.2 cells expressing scFv-furin
# Test: SimpHony of early and late endosomes with and without Dynasore
# Assay type: cell-based, Chinese Hamster
# Conditions: presence of 160 μM dynasore
# Method: The DNA sensor of the present disclosure is applied to this system, by marking early endosomes with about 500 nM Tf-I^TfA488/A647 and late endosomes with about 500 nM I^FuA546/A647 in the presence and absence of Dynasore. I^n the absence of Dynasore, early endosomes undergo active fusion and fission; showing an average pH of about 6.05±0.07 (FIG. 17) while the late endosomes show an average pH of about 5.43±0.3.
# FIG. 17 depicts Dynasore mediated arrest of endosomal fission. Early/sorting and late endosomes in IA2.2 cells expressing scFv-furin are marked with about 500 nM Tf-I^TfA488/A647 at 37° C. for 10 min. Time lapse images of control cells (−Dy) where no dynasore is added, (+Dy) in presence of about 160 μM dynasore and (W) after dynasore is washed out and incubated for about 10 min at about 37° C. for recovery. Images are acquired with a time interval of about 2 s over 2 min period and compressed to a movie playing at 7 fps.
smiles,measurement,value
O=C(N/N=C/c1ccc(O)c(O)c1)c1cc2ccccc2cc1O [Dynasore],lumenal pH of late endosomes,5.44±0.38
same,mean lumenal pH of early endosomes,6.58±0.19
